Results as given in US10106834B2, “Methods of diagnosing and treating B cell acute lymphoblastic leukemia” (The General Hospital Corporation, priority 2013, dated 2018).
At least one compound was matched to its structure with a doubt left.

What was measured:
Assay type in all cases: cell-based, mouse
[1] = tested on: WT, pre-leukemic IkE5Δ/Δ, leukemic IkE5Δ/Δ and BCR-ABL1+ pre-B cells; assay: Apoptosis (Annexin V) / viability of pre-B cells with FAK inhibitor in vitro; details: vs-6062 1 μM, vs-6063 1 μM and 3 μM; 24 hours; pre-leukemic and leukemic preB cells
[2] = tested on: Ikaros-mutant BCR-ABL1+ leukemic cells; assay: Combination of FAK inhibitor and dasatinib on stroma (Chou-Talalay combination index); details: VS-6063 plus dasatinib, wide range of concentrations
[3] = tested on: WT, pre-leukemic IkE5Δ/Δ, leukemic IkE5Δ/Δ and BCR-ABL1+ IkE5Δ/Δ pre-B cells; assay: Stromal adhesion of pre-B cells on OP9 stroma with FAK inhibitor; details: vs-6062 1 μM, vs-6063 1 μM and 3 μM; 24 hours; pre-leukemic and leukemic preB cells

Q: For `CNC(=O)c1ccc(Nc2ncc(C(F)(F)F)c(NCc3nccnc3N(C)S(C)(=O)=O)n2)cc1` [VS-6063], which “percentage of viable non-adherent cells” value [1] is on record?
A: reduce viability

Q: And the “killing of leukemic cells by the combination” value [2]?
A: synergistic effect

Q: What about the “absolute numbers of adherent cells” value [3] of the same compound?
A: reduce adhesion
